# Measured values published in PubChem BioAssay AID485349 (National Center for Advancing Translational Sciences (NCATS), 2010).
# Hit rate of the full screen: of about 320,000 compounds, about 620 (0.19%) were called active. Inconclusive results, whose numbers are uncertain, are shown with a selection of clear calls. Calls come from the whole dose curve; as a rule, active = well fitted activation curve with a large enough effect; inconclusive = small, poorly fitted or top-dose-only effect; inactive = no such curve, though single readings can be large or run the other way. A potency beside an inconclusive call is a rough fit, not a confirmed value.
# Assay: qHTS Assay for Identifying a Potential Treatment of Ataxia-Telangiectasia; note: nearly all actives have a fitted effect of over 45% in size; for activation: % of control where 0% means no effect
# Settings: […] A-T fibroblasts, KAP-1 phosphorylation AlphaLISA, neocarzinostatin DNA damage 30 min before lysis; series mostly up to 57.5 µM; activation: at the top concentration
# Method in brief: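 ATM-like activity read as KAP-1 phosphorylation via AlphaLISA donor/acceptor antibody pairs after lysis and 6 hr at 25C. Cells were ATM-null patient fibroblasts ([…], hTERT), dosed 60 min, then exposed to the DSB inducer NCS for 30 min.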
# Potency is the fitted concentration of half-maximal effect.
Compound,Potency,activation
NC1=NC(=Nc2ccc(S(=O)(=O)N3CCOCC3)cc2)c2ccccc21,"inconclusive: 22.4 µM [activator, single point]",
COc1ccc(-n2ncc3c2CC(C)(C)CC3NC(=O)CCN2CCCC2=O)cc1 (stereo not given),"inconclusive: 39.8 µM [activator, single point]",
CC(=O)Nc1ccc(S(=O)(=O)N(C#N)c2nc(N(C)C)nc(N(C)C)n2)cc1,"inconclusive: 35.5 µM [activator, partial curve]",
CS(=O)(=O)c1ccc2nc(NC(=O)Nc3cccc(Cl)c3)sc2c1,"inconclusive: 39.8 µM [activator, partial curve]",
O=c1[nH]c2ccc(S(=O)(=O)N3CCCCC3)cc2[nH]1,"inconclusive: 39.8 µM [activator, single point]",
COc1ccc(-c2cc3nc(-c4ccccc4)cc(N4CCC5(CC4)OCCO5)n3n2)cc1,"inconclusive: 22.4 µM [activator, partial curve]",
CC1CCCC(C)N1CCCNC(=O)Cn1c(=O)c2cccn2c2cccnc21 (stereo not given),"inconclusive: 3.98 µM [activator, partial curve]",
CC(NC1c2ccccc2-c2ccccc21)c1ccccc1 (stereo not given),"inconclusive: 39.8 µM [activator, single point]",
COc1cnn(-c2ccc(C)cc2)c(=O)c1Br,,inactive: -3.41%
O=C(CCS(=O)(=O)Cc1ccccc1)Nc1ncc([N+](=O)[O-])s1,,inactive: -2.1%
CCCCOC(=O)c1cc(C)nc2ccc(Br)cc12,"inconclusive: 39.8 µM [activator, single point]",
O=C(c1ccccc1)c1ccccc1N1C(=O)C=CC1=O,"inconclusive: 7.08 µM [activator, single point]",
CCc1ccccc1NC(=O)CSc1ccsc1[N+](=O)[O-],,inactive: 5.86%
Cc1cccc(/C=C2/S/C(=N/N=C3\CC4CCC3(C)C4(C)C)NC2=O)c1 (stereo not given),"inconclusive: 39.8 µM [activator, single point]",
Cc1c(C(=O)N2CCN(c3ccccc3)CC2)oc2c(Cl)cccc12,"inconclusive: 31.6 µM [activator, single point]",
CC1CN(C(=O)CCC(=O)NC(C)c2ccccc2)c2cc(Cl)ccc2O1 (stereo not given),"inconclusive: 25.1 µM [activator, partial curve]",
C=CCC[C@H](Cc1ccc(F)cc1)C(=O)OC[C@@H](Cc1c[nH]c2ccccc12)NC(=O)[C@@H](CC=C)CC(=O)N[C@@H](CO)Cc1ccccc1,,inactive: -4.81%
COc1ccccc1N1CCN(C(=O)/C=C/c2ccc(C)cc2)CC1,,inactive: 6.43%
O=[N+]([O-])c1nn(-c2ccc3c(c2)OCCO3)n(O)c1=NCc1ccc(F)cc1,,inactive: -9.4%
CN1CCc2c(sc3c2C(=O)NC(c2ccc(-c4cccc(Cl)c4)o2)N3)C1 (stereo not given),"inconclusive: 39.8 µM [activator, single point]",
Cc1cc(N2CCOCC2)nc(SCC(=O)c2ccccc2)n1,"inconclusive: 35.5 µM [activator, partial curve]",
Cc1ccc(C)n1-c1ccc(NC(=O)c2ccccc2)cc1,,inactive: 2.88%
Cc1ccc(NC(=O)CCc2nc3ccccc3s2)c(O)c1,,inactive: 3.63%
O=C(N/N=C/c1cc([N+](=O)[O-])ccc1O)c1ccncc1,,inactive: -4.51%

# 3 entries picked at random from those above, as already listed:
Compound,Potency,activation
COc1ccc(-n2ncc3c2CC(C)(C)CC3NC(=O)CCN2CCCC2=O)cc1 (stereo not given),"inconclusive: 39.8 µM [activator, single point]",
CS(=O)(=O)c1ccc2nc(NC(=O)Nc3cccc(Cl)c3)sc2c1,"inconclusive: 39.8 µM [activator, partial curve]",
Cc1cc(N2CCOCC2)nc(SCC(=O)c2ccccc2)n1,"inconclusive: 35.5 µM [activator, partial curve]",

# The listing continues:

Compound,Potency,activation
CCCN1C2CCCC1CC(NC(=S)Nc1cccc(C)c1C)C2 (stereo not given),"inconclusive: 3.55 µM [activator, full curve]",
FC(F)(F)c1cccc(CNC2c3ccccc3-c3ccccc32)c1,"inconclusive: 39.8 µM [activator, single point]",
CCCn1nc(NC(=O)c2cccs2)c2cc3cccc(C)c3nc21,"inconclusive: 39.8 µM [activator, single point]",
CC1=NN(C(C#N)c2ccc([N+](=O)[O-])cc2)C(C)(C)C1 (stereo not given),active: 3.55 µM,
CCCOc1ccc(C(=O)c2ccccc2C(=O)OC2CCOC2=O)cc1OCCC (stereo not given),"inconclusive: 39.8 µM [activator, single point]",
COc1ccc(CN(CCC(c2ccccc2)c2ccc(OC(C)C)cc2)C(=O)CCl)cc1OC (stereo not given),,inactive: -3.73%
CCn1c(SCC(=O)NCC2CCCO2)nnc1-c1c[nH]c2ccccc12 (stereo not given),"inconclusive: 1.41 µM [activator, full curve, poor fit]",
CN1CCc2c(sc(NC(=O)c3cc(Cl)sc3Cl)c2C(N)=O)C1,"inconclusive: 39.8 µM [activator, single point]",
CCCCCCC(C)n1[nH]c(=O)c2c(C)cc(=O)[nH]c21 (stereo not given),,inactive: -9.54%
COc1ccc(-c2ccc(=O)n(CC(=O)Nc3cccc(O)c3)n2)cc1OC,"inconclusive: 4.47 µM [activator, single point]",
CC1CC(C)(C)n2c(O)c(N=NC(N)=S)c3cccc1c32 (stereo not given),active: 12.6 µM,
Clc1ccccc1Cn1nnc(-c2ccccc2)n1,active: 22.4 µM,
Cc1ccccc1NC(=O)C(=Cc1ccc(C(=O)O)cc1)C(=O)Nc1ccccc1C,"inconclusive: 17.8 µM [activator, single point]",
CSc1nnc2c3c4c(sc3nc(-n3nc(C)cc3C)n12)COC(C)(C)C4,,inactive: -6.24%
FC(F)(F)c1cc(-c2ccccc2)nc(N2CCOCC2)n1,"inconclusive: 39.8 µM [activator, single point]",
CCc1ccc(C(O)(CC(C)C)C(CN2CCOCC2)c2ccccc2)cc1 (stereo not given),"inconclusive: 39.8 µM [activator, single point]",
C=CCN1c2ccccc2[C@]23C[C@@H](C(=O)OC)N=C2NC(C(=O)OC)=C(C(=O)OC)[C@H]13,"inconclusive: 35.5 µM [activator, single point]",
COc1ccccc1CN(C)CC(=O)Nc1ccc(Cl)cc1C(F)(F)F,"inconclusive: 35.5 µM [activator, single point]",
O=C(COC(=O)c1cc(S(=O)(=O)N2CCOCC2)ccc1O)Nc1cc(S(=O)(=O)N2CCCC2)ccc1Cl,,inactive: -6.43%
COc1nc(N2CCCCCC2)nc(N2CCCCCC2)n1,"inconclusive: 28.2 µM [activator, single point]",
CC1CCN(CC(=O)Nc2ccccc2-c2ccccc2)CC1,"inconclusive: 31.6 µM [activator, partial curve]",
CN(Cc1nc(-c2cnccn2)no1)Cc1n[nH]c2c1CCCCC2,active: 31.6 µM,
CCNc1nc(Sc2ccc(C)cc2)cc(C(F)(F)F)n1,active: 31.6 µM,

Compound,Potency,activation
COc1cc(/C=C/C(=O)OCC(=O)NCc2cccs2)ccc1OCC#N,"inconclusive: 31.6 µM [activator, partial curve]",
CNC(=O)COC(=O)c1ccc2c(c1)NC(=O)C1CCCN21 (stereo not given),,inactive: 0.524%
CC(=O)Oc1ccc(-c2csnn2)cc1,,inactive: -0.887%
CCn1nc(-c2ccccc2)c2nc3ccccc3nc21,"inconclusive: 39.8 µM [activator, single point]",
COC(=O)c1ccc(C(=O)Nc2ccc3nc(-c4ccncc4)[nH]c3c2)cc1,"inconclusive: 0.708 µM [activator, full curve, poor fit]",
O=C(CSc1ncnc2c1oc1ccccc12)Nc1nc2ccccc2s1,"inconclusive: 39.8 µM [activator, single point]",
CCCCn1c(N)c(NCc2ccccc2)c(=O)[nH]c1=O,"inconclusive: 3.55 µM [activator, full curve]",
CN(C)S(=O)(=O)Nc1ccccn1,"inconclusive: 0.631 µM [activator, full curve, poor fit]",
Cc1ccnc(NC(=O)c2ccc(COc3c(F)c(F)cc(F)c3F)o2)c1,"inconclusive: 7.08 µM [activator, single point]",
CCC(C)Sc1ccc([C@@H]2[C@@H]3C(=O)N(CC)C(=O)[C@@H]3[C@]3(C(=O)OC)CCCCN23)cc1OC (stereo not given in full),,inactive: 5.58%
O=C(COc1ccc(/C=C\[N+](=O)[O-])cc1)N1CCOCC1,"inconclusive: 2.24 µM [activator, partial curve, poor fit]",
CC(C)Oc1ccccc1C1NC(=O)CCC1[N+](=O)[O-] (stereo not given),"inconclusive: 0.708 µM [activator, full curve, poor fit]",
COc1ccc(-c2cc3nc(C)cc(-c4ccc(OC)cc4)n3n2)cc1,"inconclusive: 39.8 µM [activator, single point]",
O=C(O)CC12CC3CC(C1)CC(n1ncc(N4CCC5(CC4)OCCO5)c(Cl)c1=O)(C3)C2,,inactive: 7.72%
C=CCOC(=O)Nc1c(C(=O)OC)[nH]c2ccc(Cl)cc12,"inconclusive: 0.708 µM [activator, full curve, poor fit]",
CC(C)N(C(=O)COC(=O)CNS(=O)(=O)c1ccccc1F)c1ccccc1,"inconclusive: 25.1 µM [activator, partial curve]",
COc1ccccc1/C=C/C(=O)/C=C/c1ccccc1O,"inconclusive: 20 µM [activator, partial curve, poor fit]",
Nc1nc(Nc2ccccc2F)nc(NC2CCCCC2)c1[N+](=O)[O-],"inconclusive: 39.8 µM [activator, single point]",
O=C1C(Cl)=C(Nc2ccccc2)C(=O)c2ccccc21,active: 5.01 µM,
CCCOc1ccc(-c2nnn(CC(=O)N3CCCC(C)C3)n2)cc1 (stereo not given),active: 39.8 µM,
CC(C)Oc1nc(-c2ccccc2Cl)nc2ccccc12,active: 31.6 µM,
Cn1c(NC(=O)c2ccco2)c(-c2ccccc2)c(=O)c2ccccc21,"inconclusive: 3.16 µM [activator, single point]",
